Library screen at single concentrations

Source: ChEMBL document CHEMBL3988442, “University of Dundee, Small-Polar-MMV Screening Library” (2021).

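Assay of Toxoplasma gondii numbers, read through their beta-galactosidase reporter with a colour substrate. Tested at 10 µM. Higher reads as fewer parasites (inferred from which compounds were picked for retests). Size under these conditions: about 67,000 compounds, about 260 of them at 50% or above in at least one test.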

Each number is a percent effect as filed.
How 0% and 100% were set is not recorded. Most values in the screen are low, and negative values occur.
This is an unselected part of the compounds tested.

SMILES,Percent Effect
CCN(c1ccc(C(=O)N(Cc2cnn(C)c2)C(C)C)cn1)C(C)C,2.868%
CC(C)NC(=O)N1CCN(CC2CC2)CC2(CC(=O)N(C)C2)C1.O=C(O)C(F)(F)F (centres unmarked),0.9209%
N#CC1=C(N)Nn2c(nnc2-c2ccccc2Br)S1,0.6957%
CC(C)N(C)C(=O)C1CSCN1S(=O)(=O)c1cc(Cl)ccc1Cl (centres unmarked),8.302%
Cc1ccc(CNC2CC3(CCN(CCO)CC3)c3ccccc32)s1.O=C(O)C(F)(F)F.O=C(O)C(F)(F)F (centres unmarked),9.448%
O=C(CCc1nccs1)N1CCCC(n2cccn2)C1 (centres unmarked),-17.02%
CCN1CC2(CCC1=O)CCN(C(=O)c1ccc(C)cc1O)CC2,-13.82%
[H][C@]12CCN(C(=O)c3ccc4ccccc4c3)C[C@@]1([H])OCCN(C(C)=O)C2,3.555%
Cc1cccc(-c2nc(CN3CCOCS3(=O)=O)c(C)o2)c1,1.296%
CC(C)C1CN(c2nccc(N)n2)CCC(=O)N1Cc1ccc(F)cc1 (centres unmarked),1.989%
COc1ccc(Br)c(C(=O)NCC2CCN(C(=O)c3ccoc3)CC2)c1,0.4379%
[H][C@@]12COC[C@]1(COCC1CC1)CN(S(=O)(=O)c1cccnc1)C2,3.087%
CC(C)N(C)CC(=O)NCC(Cc1ccc(F)cc1)C(N)=O (centres unmarked),22.62%
CCSc1ccccc1C(=O)NCCn1nc(-n2cncn2)ccc1=O,7.266%
CC(C)COC(=O)N1[C@@H](c2ccco2)[C@@H](CO)C[C@]12CCCCNC2=O,-19.25%
CCNC(=O)O[C@H]1COCCN(c2nc3ccccc3s2)C1,-6.564%
CCOc1cc(Cl)ccc1CNC(=O)c1ccc(=O)n(C)c1,-15.61%
Cc1nc(CCN)cc(N2CCC(O)(c3ccccc3)C2)n1 (centres unmarked),-13.38%
COCCn1ccc2c(NC(=O)C(C)C)cccc21,-20.21%
CCOC(=O)CSc1nnc([C@@H](N)CC(C)C)o1.Cl,-34.37%
Cc1nc2ccccn2c1CC(=O)N[C@@H]1CCC[C@@H](N2CCCC2)[C@@H]1O,-20.75%
CCn1nc(C)c2nnn(CC(=O)Nc3cccc(Cl)c3)c(=O)c21,-1.076%
CN1CCN(Cc2cn3c(n2)CN(Cc2ccccn2)CC3)CC1,5.724%
COc1cccn(Cc2nnc(-c3cccnc3)o2)c1=O,2.925%
COCC1c2c(cnn2CC2CC2)CCN1Cc1cccs1.O=C(O)C(F)(F)F.O=C(O)C(F)(F)F (centres unmarked),0.3205%
CC(C)NC(=O)CCN1CCCC1c1cccc2c1OCCO2 (centres unmarked),5.581%
Cc1cnc(C)c(N2CCC3(CCCN(C4CCOCC4)C3=O)C2)n1 (centres unmarked),-0.09091%
Cc1cc(CN2CCC3(CC2)CC(C(=O)O)N(C(=O)C2CC2)C3)oc1C (centres unmarked),-8.012%
CCNS(=O)(=O)c1ccc(C)c(C(=O)N(CCC#N)Cc2ccco2)c1,-1.011%
CCOC(=O)CCCNc1nc(C(C)(C)C)nc2c1cnn2C,-11.18%
O=C(c1ccncc1)N1CCCC1c1nc(O)cc(-c2ccccn2)n1 (centres unmarked),13.51%
O=C(N1CCOCC1)n1cnc2ccccc21,-2.466%
CNS(=O)(=O)c1cc(C(=O)NC2COc3ccccc3C2)ccc1OC (centres unmarked),3.386%
Cc1noc(C)c1C(=O)NCCN1CCN(S(C)(=O)=O)CC1,1.617%
Cc1nn(C)c(Oc2ccc(Cl)cc2)c1CN1CC[C@H](CO)[C@@H](O)C1,-14.74%
CN1C[C@@H](C(=O)NCC(F)(F)F)[C@@]2(CCc3ccccc3C(=O)N2)C1,1.953%
Cc1cccc(NC(=O)N2CCn3cnc(COCC4CC4)c3C2)c1,13.16%
c1cnc(-c2nc(CN3CCCC(N4CCCC4)C3)cs2)nc1 (centres unmarked),14.62%
CCC[C@@H]1CN(Cc2ccccc2SC)C[C@H]1NC(C)=O,6.979%
O=C(c1cccc(F)c1Cl)N(CCO)CC1CC1,0.4872%
Cn1cc(Cl)cc1C(=O)N1CCC2(CCCN(CC3CCC3)C2=O)C1 (centres unmarked),20.97%
CS(=O)(=O)Cc1ccc(C(=O)Nc2ccc3c(c2)C(=O)NC3)cc1,-32.2%
CC1CN(Cc2nccn2C)CCN1c1ccc2nncn2n1 (centres unmarked),1.906%
CC(C)CCOc1ccc(C(C)NC(=O)CSCC(N)=O)cc1 (centres unmarked),5.968%
CO[C@H]1CCN(S(=O)(=O)c2cccs2)[C@H]1Cc1ccncc1,-8.941%
Cc1cc(C(=O)N[C@H]2CN(CCO)C[C@@H]2C2CC2)sc1C,-5.36%
Cc1ccc(NC(=O)NCC2(O)CCCC2)cc1C,-13.55%
Cc1nnc(NCc2ccc(Cl)cc2)o1,-1.073%
O=C(O)C(F)(F)F.O=C([C@H]1CCCO1)N1CCCC2(CCN(Cc3ccncc3)C2=O)C1 (some centres unmarked),-8.093%
Cc1cc(C)n(CC2CCN(CC(O)COc3ccccc3)CC2)n1 (centres unmarked),12.78%
C[C@@H]1CN(CC(C)(C)N2CCOCC2)CC[C@@]1(O)C1CCOCC1,-38.53%
Cn1cc(CN2CC[C@@H](NS(C)(=O)=O)[C@@H]2Cc2cccnc2)cn1.O=C(O)C(F)(F)F.O=C(O)C(F)(F)F,14.42%
O=C(NCC1CC1)C1CSCN1S(=O)(=O)c1ccccc1 (centres unmarked),-17.33%
Cc1cc(C(=O)NCC(O)CN2CCCC2=O)ccc1F (centres unmarked),6.077%
CC(C)c1nc(C2CCCN2Cc2ccncc2Cl)no1 (centres unmarked),-14.54%
CCc1csc(NC(=O)NCc2ccccn2)n1,4.071%
CN(C)c1ccc(NC(=O)N2CCCC2c2ccsc2)cn1 (centres unmarked),-1.67%
CS(=O)(=O)CCC(=O)NC1CC(c2cccc(Cl)c2)C1 (centres unmarked),13.2%
Cc1cccn2c(=O)cc(OC(=O)c3ccc(OC(C)C)cc3)nc12,-12.29%
Cc1cc(C)c(CNc2cnn(CC(O)CN(C)C)c2)c(C)c1 (centres unmarked),-3.311%